PubChem BioAssay AID686943 | Drosophila RNAi Screening Center, 2013

- Purpose: 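Knockdowns that increase or decrease active ERK after insulin receptor stimulation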 (primary screen)
- Cell system: Drosophila S2R+ haemocyte-like cells expressing YFP-tagged ERK (Rolled)
- Reagents: long dsRNA against Drosophila genes
- Challenge: insulin stimulation versus unstimulated cells; dose and duration not given
- Read-out: 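Per-plate z-scores of phospho-ERK immunostaining normalised to YFP-tagged ERK, measured with and without insulin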
- Direction: replicate 1, z-score of dpERK with insulin and replicate 2, z-score of dpERK with insulin: higher = more active ERK per ERK-YFP after insulin; replicate 1, z-score of dpERK under basal conditions: higher = more basal active ERK per ERK-YFP; replicate 1, z-score of ERK-YFP with insulin: higher = more YFP-tagged ERK signal
The deposit covers about 23,000 reagents; shown is an unselected part of those that have a named target and a result. 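Extra replicates exist only for a retested subset of genes; insulin dose and duration not given; both raised and lowered dpERK matter.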 A plus sign joins genes that one reagent is predicted to hit. No sequences are given here. The record does not give: the amount of reagent, the time to read-out.

| target gene | DRSC id | replicate 1, z-score of dpERK with insulin | replicate 2, z-score of dpERK with insulin | replicate 1, z-score of dpERK under basal conditions | replicate 1, z-score of ERK-YFP with insulin |
| --- | --- | --- | --- | --- | --- |
| Jhbp6 | DRSC11714 | 0.35 | 0.19 | 0.95 | 0.61 |
| alien + CG17906 | DRSC02641 | 1.25 | 0.57 | -0.41 | -1.26 |
| CG43085 | DRSC09497 | -0.84 | -0.39 | -0.35 | 0.86 |
| Hacd1 | DRSC02988 | 0.22 | -0.06 | -0.54 | -0.36 |
| CG31897 | DRSC01020 | -0.43 | 0.12 | 0.25 | -0.09 |
| Nct | DRSC16172 | 0.31 | 0.58 | -0.32 | 1.07 |
| CG4806 | DRSC04491 | 0.79 | 0.28 | 0.33 | 0.18 |
| Elba2 | DRSC00731 | -0.45 | 0.49 | 0.27 | 0.22 |
| CG11593 | DRSC08206 | 0.94 | 0.69 | 0.68 | -0.38 |
| I-3 | DRSC20479 | -0.35 | -0.76 | -0.9 | 0.16 |
| Mdr49 | DRSC07466 | 0.52 | 1.14 | 0.59 | -1.41 |
| CG10909 | DRSC14282 | -0.76 | -0.83 | -0.76 | 0.5 |
| CG12516 | DRSC14524 | 0.12 | -0.12 | 0.47 | -0.37 |
| Adgf-D | DRSC16521 | -0.08 | 0.32 | 1.08 | 0.02 |
| LpR2 | DRSC13726 | 0.72 | 0.32 | -0.06 | -0.23 |
| LpR2 | DRSC13728 | -0.46 | 0.77 | 0.66 | 0.38 |
| LpR2 | DRSC15655 | 0.33 | 0.43 | -0.13 | 0.64 |
| LpR2 | DRSC15658 | 0.3 | -0.51 | -0.03 | 0.48 |
| Ccp84Ac | DRSC12588 | 0.68 | -0.09 | 0.92 | 0.14 |
| Xrp1 | DRSC15282 | -0.61 | -2.14 | -0.35 | -0.58 |
| Xrp1 | DRSC15283 | 0.08 | 0 | 0.19 | 1.64 |

Limited to “replicate 1, z-score of dpERK under basal conditions”, for 4 of the entries above:
CG43085 [DRSC09497] = -0.35
Hacd1 [DRSC02988] = -0.54
CG31897 [DRSC01020] = 0.25
Nct [DRSC16172] = -0.32

Further results follow:
| target gene | DRSC id | replicate 1, z-score of dpERK with insulin | replicate 2, z-score of dpERK with insulin | replicate 1, z-score of dpERK under basal conditions | replicate 1, z-score of ERK-YFP with insulin |
| --- | --- | --- | --- | --- | --- |
| CG33461 | DRSC22892 | 1.07 | 0.32 | -1.01 | -1.03 |
| Trf4-1 | DRSC17775 | 0.99 | 0.37 | -0.95 | 0.15 |
| CG6195 | DRSC15989 | -0.72 | -0.29 | 0.04 | 0.61 |
| CG13358 | DRSC18534 | 0.07 | 0.69 | 0.07 | 0.7 |
| CG42266 | DRSC21577 | 0.15 | 0.28 | -0.92 | -1.24 |
| CG42266 | DRSC21957 | 0.56 | 0.39 | -0.16 | 0.11 |
| Wnt2 | DRSC05160 | -0.33 | -0.75 | -0.31 | -0.4 |
| Wnt2 | DRSC07574 | -0.21 | 0.12 | 0.45 | 0.03 |
| SerRS-m | DRSC14096 | -0.26 | 0.38 | 0.51 | 0.48 |
| Qsox3 | DRSC16096 | 0.13 | 0.22 | 0.06 | -0.54 |
| apolpp | DRSC17216 | 0.2 | 4.58 | -0.9 | -0.29 |
| CG10936 | DRSC05669 | 0.31 | 0.23 | 0.7 | 0.01 |
| CG10936 | DRSC05670 | 0.9 | 0.38 | 1.07 | 0.17 |
| CG10936 | DRSC06018 | 0.95 | 1.28 | -0.3 | -0.09 |
| CG13038 | DRSC09919 | 2.03 | 0.63 | 1 | 0.49 |
| PGRP-LE | DRSC20137 | -0.32 | 0.14 | -0.71 | 0.03 |
| atms | DRSC12310 | 1.56 | 0.97 | -0.46 | -2.15 |
| tomboy40 | DRSC04918 | 0.12 | 0.28 | -0.01 | -0.2 |
